Test results taken from PubChem BioAssay AID493014 (National Center for Advancing Translational Sciences (NCATS), 2011).
Among all 340,000 compounds or so, about 170 (0.05%) were called active. Inconclusive means that the source gave no clear call. Such entries were picked first, then a sample of the others. Calls follow the shape of the dose curve; as a rule, active = well fitted inhibition curve with a large enough effect in the signal ratio, with a control signal flat (not every such curve was filed as active); inconclusive = small, poorly fitted or top-dose-only effect, or effect the other way, or a change in a side signal; inactive = flat fitted curve, though single readings scatter; the % refers to the signal ratio. Potencies beside an inconclusive call are fits to weak or partial responses and may not hold up.
Potency is read from the fitted curve at half-maximal effect.

Test: qHTS Assay to Find Inhibitors of Chronic Active B-Cell Receptor Signaling;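 as to activity change, negative = inhibition: plate controls were basal doxycycline-induced cells for no effect and cells given 10 µM MG132 for full effect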
Details: ABC-DLBCL IkBa-CBG/CBR reporter, luminescence ratio (green luciferase fused to IkBa over red control in TMD8 lymphoma cells), 4 h; activity change, negative = inhibition: at 46.1 µM (top of the series)
Outline: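 Doxycycline induced both beetle luciferases in TMD8 lymphoma cells; IKK-driven degradation limits the IkappaBalpha-fused green signal, while red luminescence normalises for cell number and nonspecific effects. Compounds tested up to 46 uM, 4 hrs.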
With O=C(CSc1nc2ccccc2o1)c1ccc2c(c1)OCCO2 the activity change, negative = inhibition was inconclusive: 2.41%. With Nc1nc(CSCc2ccccc2)nc(N2CCOCC2)n1 the activity change, negative = inhibition was inconclusive: -19%. In the case of CCn1ccnc1CN(C)Cc1nc(-c2cccc(Cl)c2)no1, the activity change, negative = inhibition is reported as “inactive”. With CCOc1ccccc1N1CCN(Cc2ccc(OC)c(OC)c2OC)CC1 the Potency was inconclusive: 29.1 µM [falling, single point]. In the case of CCOC(=O)c1ccc(NC(=O)c2ccc(CO)c(C(=O)NC3CCN(C(=O)OCC)CC3)c2)cc1, the activity change, negative = inhibition is reported as inconclusive: 11.7%. In the case of Cc1ccc(C)c(Nc2ncccc2C(=O)NCc2cccs2)c1, the Potency is reported as inconclusive: 11.6 µM [rising, partial curve, poor fit]. For Cc1cc(NC(=O)c2ccccc2F)on1, the activity change, negative = inhibition was “inactive”. With Cc1cccc(C(=O)Oc2ccc3ccc(O)cc3c2)c1 the activity change, negative = inhibition was “inactive”. With Cn1c(=O)cc(OCC(=O)N2CCN(c3cccc(C(F)(F)F)c3)CC2)c2ccccc21 the activity change, negative = inhibition was “inactive”. With COc1ccccc1N1C(=O)S/C(=C\c2cc(C)n(C)c2C)C1=O the activity change, negative = inhibition was “inactive”. For CC(=O)c1c(C)[nH]c(C(=O)Nc2cccc(S(=O)(=O)N3CCOCC3)c2)c1C, the activity change, negative = inhibition was inconclusive: -12.5%. For COc1ccc(CC(=O)N2CCN=C2SC)cc1, the activity change, negative = inhibition was inconclusive: -1.16%. In the case of [O-][n+]1c2ccccc2c2n1CCCN=C2c1ccc(Cl)cc1, the Potency is reported as inconclusive: 16.4 µM [falling, partial curve]. With COc1ccc(-n2nnnc2S(=O)(=O)CC(=O)N2CCCCC2)cc1 the Potency was inconclusive: 18.4 µM [rising, partial curve, poor fit]. For COc1ccc(C(c2c(C)[nH]n(-c3ccccc3)c2=O)c2c(C)[nH]n(-c3ccccc3)c2=O)cc1OC, the activity change, negative = inhibition was “inactive”. In the case of O=C(Nc1nc2cc3c(cc2s1)OCCO3)c1ccco1, the Potency is reported as inconclusive: 35.5 µM [rising, single point]. In the case of CC(C)OC(=O)CSc1ncnc2c1cnn2-c1ccccc1, the activity change, negative = inhibition is reported as inconclusive: -5.61%. In the case of Cc1ccc2cc3cc(C(=O)NCCCN4CCCC4=O)oc3nc2c1, the activity change, negative = inhibition is reported as inconclusive: -1.35%. For Cc1nn(-c2ccccc2)c(C)c1/C=N/n1c(-c2ccccc2Br)n[nH]c1=S, the activity change, negative = inhibition was “inactive”. In the case of S=C(c1ccc(-c2ccc(Cl)cc2)o1)N1CCCCC1, the activity change, negative = inhibition is reported as inconclusive: 2.02%. With O=C(NCCc1c[nH]c2ccccc12)c1cccc(S(=O)(=O)Nc2ccccc2Cl)c1 the activity change, negative = inhibition was “inactive”. In the case of CCc1cc(-c2n[nH]c(C)c2-c2nc3ccccc3s2)c(O)cc1OCC(=O)NN, the activity change, negative = inhibition is reported as inconclusive: -1.03%. For Cc1ccc(NC(=O)c2cc(S(=O)(=O)N3CCc4ccccc43)ccc2F)cc1Cl, the activity change, negative = inhibition was inconclusive: 10.5%. For COc1ccc(-c2nc3ncccc3o2)cc1NC(=O)c1ccco1, the activity change, negative = inhibition was inconclusive: 0.786%. In the case of O=C(CSc1nnc(-c2ccccc2)o1)N1CCCC1, the activity change, negative = inhibition is reported as “inactive”. For O=C(Nc1cc2c(cc1Br)OCCO2)c1ccc(=O)[nH]c1, the activity change, negative = inhibition was inconclusive: 0.433%. For COC(=O)c1sc(NC(=O)c2cc(-c3ccccc3)nc3ccccc23)c(C#N)c1C, the activity change, negative = inhibition was inconclusive: -0.0543%. In the case of C/C=C/C(=O)OCC(=O)Nc1cc([N+](=O)[O-])ccc1Cl, the activity change, negative = inhibition is reported as inconclusive: 3.74%. In the case of C=CCc1cccc(/C=N/NC(=O)c2ccccc2Br)c1O, the Potency is reported as inconclusive: 12.6 µM [falling, partial curve]. In the case of Cc1ccc(N2C(=O)CC(Cc3cc(C)cc(C)c3)C2=O)cc1 (centres undefined), the activity change, negative = inhibition is reported as “inactive”. With COc1ccc(F)c(-c2nc(CN3CCC(c4ccccc4)CC3)c(C)o2)c1 the activity change, negative = inhibition was inconclusive: -2.29%. In the case of Cc1ccc2cc3c(N)c(C(=O)Nc4c(C)[nH]c(=O)[nH]c4=O)sc3nc2c1, the activity change, negative = inhibition is reported as inconclusive: 14.6%. With CC(=O)c1cnc2c(-c3ccccc3)c(C)nn2c1C the activity change, negative = inhibition was inconclusive: 7.06%. For C[C@@]12C(=O)N(Cc3ccco3)CC(=O)N1[C@H]1c3ccccc3OC[C@@H]1[C@@H]2c1ccccc1, the activity change, negative = inhibition was “inactive”. For CCCCSc1nsc(NC(C)=O)n1, the activity change, negative = inhibition was inconclusive: -0.217%. With CCOC(=O)c1sc(Nc2nc3ccc(OC)cc3s2)cc1C the activity change, negative = inhibition was inconclusive: 8.93%. For CN(Cc1ccc(F)cc1)C(=O)COc1ccccc1-c1ccccc1, the activity change, negative = inhibition was inconclusive: -5.74%. In the case of CCOC(=O)c1nnc(-c2cccs2)nc1Oc1ccc(Cl)cc1, the Potency is reported as inconclusive: 18.4 µM [falling, partial curve]. In the case of Cc1cc(NC(=O)c2cccc(S(=O)(=O)N(C)C)c2)n(-c2ccccn2)n1, the activity change, negative = inhibition is reported as inconclusive: 18.9%. For Cc1cc(NC(=O)CC(C)C)c(=O)n(Cc2cccc(F)c2)c1, the activity change, negative = inhibition was “inactive”. In the case of CC1(C2CC2)NC(=O)N(CC(=O)N2CCN(S(=O)(=O)c3ccc(F)c(F)c3)CC2)C1=O (centres undefined), the activity change, negative = inhibition is reported as “inactive”. For CC(C)(C)c1ccc(C(=O)O)c(C(=O)c2ccc(C(=O)O)cc2)c1, the activity change, negative = inhibition was inconclusive: -7.63%. In the case of CCOC(=O)C1(CC2CC2)CCN(Cc2ccc(O)c(Cl)c2)CC1, the activity change, negative = inhibition is reported as “inactive”. With COC(=O)c1ccc(N2CCOCC2)c(NC(=O)Nc2cccc(OC)c2)c1 the activity change, negative = inhibition was inconclusive: -3.16%. With Cc1cc(C)cc(-n2nc(C)cc2N)c1 the Potency was inconclusive: 16.4 µM [falling, single point]. In the case of COc1ccc(NC(=O)CN(C)S(=O)(=O)c2ccc3c(c2)OCCO3)c2ncccc12, the activity change, negative = inhibition is reported as inconclusive: 1.7%. With COc1ccc(NC(=O)c2cc(-c3ccc(OC)c(OC)c3)on2)cc1OC the Potency was inconclusive: 20.6 µM [falling, partial curve]. With COc1ccccc1C(=O)Nc1sc(C(=O)N2CCCC2)c(C)c1C#N the activity change, negative = inhibition was inconclusive: -14.2%. For C=C(C)CNC(=S)N/N=C/c1c(F)cccc1F, the Potency was inconclusive: 31.6 µM [cytotoxic, single point]. With COc1ccc2c(c1)C(C1=C(O)CC(C)(C)CC1=O)C1=C(CC(C)(C)CC1=O)O2 (centres undefined) the activity change, negative = inhibition was inconclusive: 29.5%. With CCc1ccccc1N(CC)C(=O)CCc1nc(-c2ccc(C)cc2)no1 the activity change, negative = inhibition was inconclusive: -0.979%. For Cn1c(=O)c2cc(S(=O)(=O)NC(C(=O)Nc3cccnc3)c3ccccc3)ccc2n(C)c1=O (centres undefined), the activity change, negative = inhibition was inconclusive: -15.3%. With CSc1ccc(-c2nc(O)c3cnccn23)cc1 the activity change, negative = inhibition was inconclusive: 11.6%. For CCOC(=O)c1cnc(Cc2ccccc2)[nH]c1=O, the activity change, negative = inhibition was “inactive”.
